PubChem BioAssay AID1259327 – Drosophila RNAi Screening Center | 2017
The whole screen tested about 3,100 reagents; shown is an unselected part. In the full data, 378 (12%) were called active. 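Hits include both directions; z-score sign shows ATP rise or fall; raw luminescence values are not plate-normalised.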 Names joined by + are all predicted targets of the reagent. Not given: the amount of reagent.

Purpose: 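Baseline ATP after transmembrane-protein gene knock-down with water vehicle only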
System: Drosophila S2R+ cells
Reagents: long dsRNA against Drosophila genes
Time to read-out: 5 days (water added on day 4, read one day later)
Challenge: water added as vehicle, no metal, one day before read-out
Read-out: 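Luciferase ATP signal per well, normalised to plate mean, duplicate average converted to z-score across plates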
Scale: ATP z-score: higher = more total ATP than typical wells; ATP luminescence: higher = more total ATP
Active means: 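a hit is any knock-down whose absolute ATP z-score is greater than 1.5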
Calls: active = hit: ATP up or down; inactive = no clear ATP change

gene	amplicon	ATP z-score, duplicate mean	ATP luminescence, replicate 1 (RLU)	ATP luminescence, replicate 2 (RLU)	Outcome
SK (small conductance calcium-activated potassium channel)	DRSC17387	1.01	5.50e5	8.72e5	inactive
SK (small conductance calcium-activated potassium channel)	DRSC17887	4.38	1.06e6	1.39e6	active
SK (small conductance calcium-activated potassium channel)	DRSC17888	-0.858	6.69e5	7.56e5	inactive
SK (small conductance calcium-activated potassium channel)	DRSC27622	0.781	9.43e5	1.03e6	inactive
Piezo	DRSC03092	0.552	4.82e5	5.56e5	inactive
Piezo	DRSC39751	0.228	4.26e5	5.37e5	inactive
p24-1 (p24-related-1)	DRSC19827	2.33	8.50e5	8.80e5	active
p24-1 (p24-related-1)	DRSC26718	-0.974	1.06e6	1.01e6	inactive
Or24a (Odorant receptor 24a)	DRSC00768	0.685	7.74e5	8.23e5	inactive
Acp95EF + Spase22-23	DRSC14102	-1.06	2.62e5	6.21e5	inactive
Ktl (Kctd12-like)	DRSC14270	0.503	7.66e5	7.50e5	inactive
Gr98c (Gustatory receptor 98c)	DRSC26546	-0.638	9.34e5	9.89e5	inactive
Gr98c (Gustatory receptor 98c)	DRSC39650	1.75	5.65e5	6.05e5	active
Tsp3A (Tetraspanin 3A)	DRSC18656	0.288	7.52e5	7.22e5	inactive
Tsp3A (Tetraspanin 3A)	DRSC25654	-0.391	8.13e5	7.90e5	inactive
Tsp42Ee (Tetraspanin 42Ee)	DRSC05947	1.79	7.84e5	7.79e5	active
Tsp42Ee (Tetraspanin 42Ee)	DRSC29024	1.1	8.55e5	1.04e6	inactive
CG10444	DRSC05990	-1.02	6.34e5	6.09e5	inactive
CG10444	DRSC39598	3.72	7.44e5	6.90e5	active
mtt (mangetout)	DRSC05107	-0.1	7.27e5	7.36e5	inactive
mtt (mangetout)	DRSC06753	-0.412	6.91e5	7.04e5	inactive
mtt (mangetout)	DRSC07235	1.09	6.54e5	7.82e5	inactive
CG7912	DRSC16343	0.353	5.92e5	7.66e5	inactive
CG40006	DRSC03787	0.406	6.48e5	9.34e5	inactive
CG40006	DRSC03814	0.144	7.10e5	8.09e5	inactive
CG31787	DRSC01632	-0.344	6.85e5	7.26e5	inactive
kek3 (kekkon 3)	DRSC22830	0.142	6.02e5	5.82e5	inactive
kek3 (kekkon 3)	DRSC24250	0.726	1.02e6	8.61e5	inactive
CG1801	DRSC20556	0.164	7.35e5	7.88e5	inactive
KdelR (KDEL receptor)	DRSC03353	0.0533	4.56e5	5.11e5	inactive
Alg12 (Alg12 alpha-1,6-mannosyltransferase)	DRSC16416	0.239	3.42e5	7.05e5	inactive
Alg12 (Alg12 alpha-1,6-mannosyltransferase)	DRSC39763	-1.05	4.01e5	4.11e5	inactive
CG10864	DRSC14273	0.577	3.41e5	7.83e5	inactive
Ir75a (Ionotropic receptor 75a)	DRSC10188	1.05	1.14e6	9.34e5	inactive
Ir75a (Ionotropic receptor 75a)	DRSC39494	0.705	5.21e5	4.79e5	inactive
Sr-CIII (Scavenger receptor class C, type III)	DRSC22262	-0.324	7.98e5	8.22e5	inactive
Pex12 (Peroxin 12)	DRSC00622	0.465	7.93e5	7.15e5	inactive
Pex12 (Peroxin 12)	DRSC27149	0.0258	7.22e5	1.03e6	inactive
na (narrow abdomen)	DRSC19639	-0.535	4.93e5	6.54e5	inactive
na (narrow abdomen)	DRSC29828	0.517	5.83e5	6.65e5	inactive
sut1 (sugar transporter 1)	DRSC07700	0.507	7.97e5	7.73e5	inactive
ppk7 (pickpocket 7)	DRSC03236	0.368	7.38e5	7.91e5	inactive
tor (torso)	DRSC07707	-0.0798	5.50e5	6.75e5	inactive
tor (torso)	DRSC36623	1.52	6.87e5	7.31e5	active
tor (torso)	DRSC36624	-1.01	5.36e5	4.52e5	inactive
stan (starry night)	DRSC07697	-1.05	5.70e5	4.79e5	inactive
stan (starry night)	DRSC39642	-0.132	4.60e5	4.52e5	inactive
CG7149	DRSC03016	-0.839	4.56e5	3.81e5	inactive
CG7149	DRSC39817	-1.62	3.73e5	3.57e5	active
Or19a + Or19b	DRSC22604	-2.05	4.02e5	5.44e5	active
Or19a + Or19b	DRSC39643	-0.622	4.62e5	3.82e5	inactive
PIG-Wa (Phosphatidylinositol glycan anchor biosynthesis class W a)	DRSC00728	-0.355	7.02e5	6.37e5	inactive
CG9706	DRSC11095	0.211	7.48e5	7.59e5	inactive
CG9706	DRSC39822	-0.537	4.59e5	4.22e5	inactive
Ndae1 (Na[+]-driven anion exchanger 1)	DRSC02770	1.28	4.57e5	6.89e5	inactive
Ndae1 (Na[+]-driven anion exchanger 1)	DRSC39781	1.32	5.42e5	6.03e5	inactive
gcl (germ cell-less)	DRSC07623	1.58	7.85e5	1.02e6	active
gcl (germ cell-less)	DRSC27995	-1.08	9.46e5	1.02e6	inactive
dmGlut (Dietary and metabolic glutamate transporter)	DRSC02835	-1.51	3.43e5	4.05e5	active
dmGlut (Dietary and metabolic glutamate transporter)	DRSC25891	-1.16	7.09e5	7.03e5	inactive
Nrx-1 (Neurexin 1)	DRSC16184	0.411	7.44e5	7.52e5	inactive
Gr22c (Gustatory receptor 22c)	DRSC29715	0.118	8.68e5	8.08e5	inactive
JTBR	DRSC08667	-0.531	5.44e5	5.99e5	inactive
alien + CG17906	DRSC02641	-1.03	6.57e5	5.77e5	inactive
alien + CG17906	DRSC24008	0.519	9.46e5	8.30e5	inactive
Gli (Gliotactin)	DRSC03332	-0.0634	7.01e5	7.37e5	inactive
Gli (Gliotactin)	DRSC39818	-0.959	4.77e5	3.41e5	inactive
Vmat (Vesicular monoamine transporter)	DRSC22223	-1.89	6.55e5	5.74e5	active

Look-ups from the entries so far.
Nrx-1 (Neurexin 1) [DRSC16184], ATP luminescence, replicate 1 (RLU): 7.44e5
Vmat (Vesicular monoamine transporter) [DRSC22223], ATP luminescence, replicate 1 (RLU) → 6.55e5
Under “Outcome”, Tsp3A (Tetraspanin 3A) [DRSC18656] has inactive
Tsp42Ee (Tetraspanin 42Ee) [DRSC05947], Outcome = active
Entry for Alg12 (Alg12 alpha-1,6-mannosyltransferase) [DRSC39763] in “ATP z-score, duplicate mean”: -1.05
For “ATP z-score, duplicate mean”, Or19a + Or19b [DRSC39643] reads -0.622
